This is an account of results in patent publication US8734788B2, “Composition and method for treatment of reperfusion injury and tissue damage” (OPSONA Therapeutics Ltd, priority 2007, dated 2014).

This data set deals with myocardial ischemia/reperfusion (I/R) injury in C57BL6 mice. Briefly: Infarct size after myocardial ischemia/reperfusion in mice (Evans blue/TTC staining). To be noted: 30 min ischemia/24 h reperfusion, n=10. Type of data set: in vivo. As for the experimental part: Male C57BL6 mice (8-12 weeks old, 25-30 grams of weight) underwent 30 minutes of ischemia followed by 24 hours of reperfusion.
Experimental compounds were administered 5 minutes prior to reperfusion via the tail vein. […] OPN-301 (OPN301) is a murine IgG1 anti-TLR2 antibody (mouse Toll-like Receptor 2 (TLR2) antibody, clone T2.5, HyCult Biotechnology b.v., Cell Sciences, Canton, USA: catalogue number 1054).
Mice were anesthetized with a mixture of […]™ (N-(1-phenethyl-4-piperidyl)-N-phenyl-propanamide) 0.05 mg/kg, DORMICUM™ (Midazolum, 8-chloro-6-(2-fluorophenyl)-1-methyl-4H-imidazo[1,5-a][1,4]benzodiazepine) 5 mg/kg and DOMITOR™ (medetomidine hydrochlorine) 0.5 mg/kg (intraperitoneal injection). Atropine ((8-methyl-8-azabicyclo[3.2.1]oct-3-yl) 3-hydroxy-2-phenylpropanoate) 0.05 mg/kg was subcutaneously administered before coronary ligation. […]
Infarct Size (IS) is expressed as a percentage of the Area-At-Risk (AAR) and total Left Ventricle (LV). […]
To determine the AAR, the LAD was ligated once again (at the level marked by the suture left in place) and 4% Evans blue dye was injected via the thoracic aorta in a retrograde fashion. […] IS, MR and total LV area were measured using ImageJ software (version 1.34).
All data are expressed as Mean±SD. […]

In the case of “trans-1-(4-Hydroxycyclohexyl)-4-(fluorophenyl)-5-(2-methoxypyrimidin-4-yl) imidazole [SB239063]”, under “Table 1, i.v. 5 min prior to reperfusion, mAb and IgG 10 mg/kg, SB239063 0.5 mg/kg”, the “AAR_LV (Area At Risk as percentage of total Left Ventricle), Mean” value was 40.3380%. Further, the “AAR/LV Mean” value (Table 3 (amended, saline control set)) is 40.8740%.
